Data from the supplement of paper PMC10338343.
± gives the standard deviation. The entries are a selection whose mix differs from that of the whole data set. Many entries were measured with a wide error. The list shows a part of the results.

Assays:
[1] = test system: MILI (PIWIL2) piRISC loaded with L1MC piRNA (26 nt); experiment: pre-steady-state target cleavage rate (min^-1); higher = faster piRNA-guided slicing of the target; settings: guide: L1MC piRNA 5'p-UAACUAAAUACUAUGCAAGCUGUAGG
Method in brief: (§1)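 Reactions were run for 0–8 or 0–960 min at 33 °C in HEPES–potassium acetate buffer, combining 1 nM active affinity-purified piRISC with one synthetic guide, […] transcribed, DNA-blocked target RNA library and, in some cases, 500 nM GTSF1 partner protein. Sequencing of uncleaved targets followed, with normalisation to depth and to weakly complementary targets. Three trials were pooled, k3 was capped at 0.0001 min^-1, and the pre-steady-state cleavage rate was taken from a burst-and-steady-state fit.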

[2] = test system: MIWI (PIWIL1) piRISC loaded with L1MC piRNA (30 nt); experiment: as above; settings: guide: L1MC piRNA 5'p-UAACUAAAUACUAUGCAAGCUGUAGGUCCU
Method in brief: as §1

[3] = test system: EfPiwi piRISC loaded with L1MC piRNA (26 nt); experiment: pre-steady-state target cleavage rate (min^-1); guide: L1MC piRNA 5'p-UAACUAAAUACUAUGCAAGCUGUAGG; MIWI and MILI are mouse PIWI proteins and EfPiwi is from a freshwater sponge; tags in brackets are library labels; higher = faster piRNA-guided slicing of the target
Method in brief: as §1

[4] = auxiliary factor: 500 nM mouse GTSF1
[5] = auxiliary factor: none (no GTSF1)
[6] = auxiliary factor: 500 nM Ephydatia muelleri Gtsf1
[7] = auxiliary factor: none (no Gtsf1)

Sequence | pre-steady-state target cleavage rate [1, 4] | pre-steady-state target cleavage rate [1, 5] | pre-steady-state target cleavage rate [2, 4] | pre-steady-state target cleavage rate [2, 5] | pre-steady-state target cleavage rate [3, 6] | pre-steady-state target cleavage rate [3, 7]
UCCUGCUACAGCUUGGUAAGUAUUUAGUUA | 0.131 ± 0.019 | 0.00591 ± 0.0018 | 0.0624 ± 0.011 | 0.00206 ± 0.004 | 0.00341 ± 0.0025 | 0.000989 ± 0.0066
UCCUGGUAGAGCUUCCAUAGUAUUUAGUUA |  | 0.00191 ± 0.004 |  | 0.00122 ± 0.0045 | 0.00122 ± 0.006 | 0.000163 ± 0.046
UCCUGGAUGUCGUUGCUAUAGUAUUUAGUUA | 0.00133 ± 0.0073 | 0.000377 ± 0.014 | 0.000177 ± 0.027 | 0.000617 ± 0.013 | 0.000761 ± 0.0067 | 0.000242 ± 0.032
UCCUGGAUGAGCUUGCAUAGAUAUUAGUUA | 0.00307 ± 0.0041 | 0.00114 ± 0.0062 | 0.00099 ± 0.0083 | 0.000354 ± 0.0083 | 0.00029 ± 0.011 | 0.000489 ± 0.016
UCCUGGAUGUGCUUGCAAUAGUAUUUAGUUA | 0.00398 ± 0.0037 | 0.00128 ± 0.0053 | 0.00341 ± 0.0039 | 0.00121 ± 0.007 | 0.00338 ± 0.0036 | 0.00104 ± 0.0095
UCCUGGAUGUCCUUGGAUAGAAUUUAGUUA |  | 0.00175 ± 0.0039 |  | 0.000712 ± 0.0085 | 0.000485 ± 0.0097 | 0.00016 ± 0.015
UCCUGGAUGAGCUUGCAUAUAUUUAGUUA |  | 0.00196 ± 0.0041 |  | 0.00211 ± 0.0035 | 0.00241 ± 0.0045 | 0.000699 ± 0.0094
UCCUGGAACAGCUUGCAUAGUAUAAUGAAA |  | 0.000965 ± 0.0065 |  | 0.00276 ± 0.0035 | 0.00147 ± 0.0042 | 0.00016 ± 0.028
UCCUGGUACAGCUAGCAUAGUAUUUACAAA |  | 0.0014 ± 0.0043 |  | 0.00162 ± 0.004 | 0.00133 ± 0.0032 | 0.000266 ± 0.029
UCCUCCUACAGCUUGCAUAGUUAUUAGAAA |  | 0.000804 ± 0.0065 |  | 0.00117 ± 0.0063 | 0.00348 ± 0.0028 | 0.000858 ± 0.0073
UCCUGGUACAGCUUGCAAUCUAUUUAGAAA |  | 0.000986 ± 0.0083 |  | 0.00119 ± 0.0049 | 0.00031 ± 0.013 | 0.000348 ± 0.019
UCCUGCUACAGCUACCAUAGUAUUUAGUAA |  | 0.00172 ± 0.0042 |  | 0.000943 ± 0.0087 | 0.00225 ± 0.0025 | 0.000342 ± 0.019
UCCUGGUACAGCUUGCAUAGUAUUAUGAAA |  | 0.00105 ± 0.0071 |  | 0.00231 ± 0.0037 | 0.00153 ± 0.0036 | 0.00026 ± 0.032
UCCUGCUACACCUUGCAUAGUAUUUUCAAA |  | 0.00108 ± 0.006 |  | 0.00169 ± 0.0042 | 0.00244 ± 0.0022 | 0.000423 ± 0.014

Some of the entries above in another layout.
Sequence,"pre-steady-state target cleavage rate [1, 4]","pre-steady-state target cleavage rate [1, 5]","pre-steady-state target cleavage rate [2, 4]","pre-steady-state target cleavage rate [2, 5]","pre-steady-state target cleavage rate [3, 6]","pre-steady-state target cleavage rate [3, 7]"
UCCUCCUACAGCUUGCAUAGUUAUUAGAAA,,0.000804 ± 0.0065,,0.00117 ± 0.0063,0.00348 ± 0.0028,0.000858 ± 0.0073
UCCUGGUACAGCUUGCAAUCUAUUUAGAAA,,0.000986 ± 0.0083,,0.00119 ± 0.0049,0.00031 ± 0.013,0.000348 ± 0.019
